Measured values as given in EP0902088A2, “Peptides with antiproliferative properties” (Radulescu, Razvan T., priority 1996, dated 1999).
Part of at least one peptide drawing is inferred or uncertain, most often the ends. Non-standard residues stand in square brackets, D forms with d. Residues, ends and D or L forms follow the SMILES beside them.

System: MCF-7-Zellen
Experiment: Cell cycle analysis by FACS in MCF-7 breast carcinoma cells
Type: cell-based, human
Settings: G0/G1-synchronised MCF-7 cells, serum-free; peptide 10^-5M
Text: Die eine Versuchsanordnung beinhaltet Versuche mit der humanen intaktes Retinoblastomprotein enthaltenden Mammakarzinom-Zell-Linie MCF-7 bzw. der humanen defektes Retinoblastomprotein enthaltenden Osteosarkom-Zell-Linie SAOS-2. Man sät die Zellen zuerst in 12-well-Platten 100.000 (= Hunderttausend) Zellen/-well/ml RPMI oder DMEM/10% FCS) aus, läßt sie 24 Stunden adhärieren, […], und stimuliert sie dann entweder mit 10% FCS oder 10^-8 M IGF-1 oder 10^-6 M Insulin für 24 Stunden, wobei der Effekt der jeweils zugegebenen Peptide auf die jeweilige Stimulation, die ein Maß für die Zellteilungsrate ist, untersucht wird. Die Kontrollgruppe (G0/G1-synchronisierte Zellen) wird zum Zeitpunkt 0 nach der dreitägigen Hungerphase fixiert, die restlichen Zellen (+/- Peptid) werden nach 24 Stunden fixiert. Daraufhin werden die Zellen zwecks Zellzyklusanalyse im FACS analysiert. Analoge Methoden finden sich beispielsweise bei R. Fahraeus et al., Current Biology, 1996, Vol. 6, No. 1, pp 84-91 sowie bei L. Zhu et al., Genes & Development, 1993, Vol. 7, pp. 1111-1125.

CC(C)C[C@@H](N)C(=O)N[C@H](Cc1ccccc1)C(=O)N[C@H](Cc1ccc(O)cc1)C(=O)N[C@H](CCCCN)C(=O)N[C@H](CCCCN)C(=O)N[C@@H](C(=O)O)C(C)C (racemic) [P4, dL-dF-dY-dK-dK-dV] (H-[dL][dF][dY][dK][dK][dV]-OH)
G1-Phase: vermindert
S-Phase: steigert
